Measurements reported in PubChem BioAssay AID1671190 (National Center for Advancing Translational Sciences (NCATS), 2021).
In all, about 580,000 compounds went through this assay and about 6,100 (1.1%) were called active. The shares of active, inactive and inconclusive entries below differ from those in the screen. The call rests on the fitted dose curve; in most records, active means well fitted inhibition curve with a large enough effect; inconclusive means small, poorly fitted or top-dose-only effect, or another doubt; inactive means no such curve, though single readings can be large or run the other way. Potencies of inconclusive entries are doubtful fits and often do not repeat.

Amino acid sequences for entries named in this document (tags omitted). A change or cut given only in a name is not applied to a line headed by its entry.
UniProt P18054: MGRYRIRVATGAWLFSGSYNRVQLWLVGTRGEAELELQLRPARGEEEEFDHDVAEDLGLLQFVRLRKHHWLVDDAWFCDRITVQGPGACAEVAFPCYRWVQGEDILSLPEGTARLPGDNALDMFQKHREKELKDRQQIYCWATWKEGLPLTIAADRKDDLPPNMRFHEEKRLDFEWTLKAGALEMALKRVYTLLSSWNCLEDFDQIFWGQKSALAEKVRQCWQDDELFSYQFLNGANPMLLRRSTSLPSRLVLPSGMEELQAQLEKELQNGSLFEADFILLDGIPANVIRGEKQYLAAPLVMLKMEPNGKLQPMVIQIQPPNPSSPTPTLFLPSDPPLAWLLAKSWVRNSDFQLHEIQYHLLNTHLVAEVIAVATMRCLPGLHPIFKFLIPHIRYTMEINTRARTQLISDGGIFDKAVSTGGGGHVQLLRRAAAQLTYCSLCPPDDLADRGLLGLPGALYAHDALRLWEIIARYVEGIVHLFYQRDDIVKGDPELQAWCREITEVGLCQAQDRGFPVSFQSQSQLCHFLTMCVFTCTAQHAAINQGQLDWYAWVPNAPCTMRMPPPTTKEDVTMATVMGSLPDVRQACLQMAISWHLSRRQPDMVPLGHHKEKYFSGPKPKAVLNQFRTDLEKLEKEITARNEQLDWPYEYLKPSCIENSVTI

The compounds below were run against Polyunsaturated fatty acid lipoxygenase ALOX12 (Homo sapiens) (UniProt P18054) (assay: Primary qHTS assay for inhibitors of human arachidonate 12S-lipoxygenase (ALOX12): Round 2). Settings: purified 12hLO, xylenol orange hydroperoxide absorbance; series mostly up to 108 µM.
Outline: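 Hydroperoxide product was detected by ferrous iron/xylenol orange as the 573 to 405 nm absorbance ratio. Arachidonic acid at 40 uM (final) was turned over for 30 min at room temperature by 150 nM human 12hLO, pH 7.0 Hepes buffer, after 15 min compound preincubation.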
Potency means the concentration at half of the fitted maximal effect.

SMILES | Potency
CCOc1cc(NC(=S)Nc2ccccc2)c(OCC)cc1NC(=O)c1ccc(OC)cc1 | inconclusive: 50.1 µM [inhibitor, partial curve, poor fit]
CCOc1ccc(NC(=O)N(Cc2c[nH]c3ccccc23)C2CCCCC2)cc1 | inactive
Oc1cccc(CNC(c2ccccc2)c2ccccc2)c1 | inconclusive: 39.8 µM [inhibitor, partial curve, poor fit]
COc1ccc(CCCc2nnc(SCC(=O)Nc3nccs3)n2C)cc1C | inactive
CCN(CC)c1ccc(/C=N/Nc2nc(C)cc(C)n2)c(O)c1 | inconclusive: 89.1 µM [inhibitor, partial curve, poor fit]
Cc1oc(-c2cccc(Cl)c2)nc1CN1CCC(C(=O)NCCCN2CCN(c3cccc(Cl)c3)CC2)CC1 | inconclusive: 50.1 µM [inhibitor, partial curve, poor fit]
CCCn1c(-c2ccc(F)cc2)n[nH]c1=S | inconclusive: 56.2 µM [inhibitor, partial curve, poor fit]
CCCc1noc(CCC(=O)Nc2ccccn2)n1 | inconclusive: 1.58 µM [inhibitor, full curve, poor fit]
O=C(CNc1cccc(F)c1)NCc1ccc(Cl)cc1 | inconclusive: 50.1 µM [inhibitor, partial curve, poor fit]
CCC[C@@H]1C[C@@H](C(=O)N[C@@H]([C@H]2O[C@H](SC)[C@H](O)[C@@H](O)[C@H]2O)[C@@H](C)O)N(C)C1 | inconclusive: 8.63 µM [inhibitor, full curve]
N#Cc1cc2ccccc2nc1SCC(=O)Nc1ccccc1N1CCOCC1 | inactive
CCc1ccccc1NC(=O)CN1CCN(CC(=O)Nc2ccc3c(c2)OC2(CCCCC2)O3)CC1 | inconclusive: 112 µM [inhibitor, single point]
CC(=O)N1CCC(NC(=O)c2cc(=O)c3ccccc3o2)CC1 | inconclusive: 50.1 µM [inhibitor, partial curve, poor fit]
Cc1ccc(S(=O)(=O)[N-]c2nc3ccccc3nc2-[n+]2cc(C)cc(C)c2)cc1 | inconclusive: 56.2 µM [inhibitor, partial curve, poor fit]
CC1=NN(C(=O)c2ccccc2F)C(O)(c2ccc(Cl)cc2)C1 (stereo not drawn) | inconclusive: 31.6 µM [inhibitor, single point]
CCCNC(=O)C1(C)CCN(Cc2ccc(Cl)c(Cl)c2)C1 (stereo not drawn) | inconclusive: 44.7 µM [inhibitor, partial curve]
CC1(C)NC(=O)N(CC(O)CN(c2ccccc2)S(=O)(=O)c2ccc([N+](=O)[O-])cc2)C1=O (stereo not drawn) | inconclusive: 100 µM [inhibitor, single point]
Cc1ccc2cc3cc(C(=O)NCCCN4CCCCCC4)oc3nc2c1 | inconclusive: 0.199 µM [inhibitor, full curve, poor fit]
CC1CCCN(C(=O)CNC(=O)c2ccco2)C1 (stereo not drawn) | inconclusive: 39.8 µM [inhibitor, single point]
Cc1ccccc1OCCCCn1cnc2ccccc21 | inactive
COC(=O)c1c(NC(=O)c2c(-c3ccccc3Cl)noc2C)sc2c1CCC2 | inconclusive: 8.91 µM [inhibitor, partial curve]
CCCCCCCCc1c(O)nc(-n2[nH]c(C)c(CCO)c2=O)[nH]c1=O | inconclusive: 31.6 µM [inhibitor, single point]
Fc1cccc(Cl)c1CNc1ccc(Cl)cc1 | inconclusive: 50.1 µM [inhibitor, partial curve, poor fit]

SMILES | Potency
NC(=O)c1c(NC(=O)c2ccc([N+](=O)[O-])o2)sc2c1CCCC2 | inactive
O=C(CSc1nc(O)cc(=O)n1-c1ccccc1)Nc1nc2ccccc2s1 | inconclusive: 112 µM [inhibitor, single point]
O=[N+]([O-])c1ccc(/C=N/OCc2cc(F)cc3cccnc23)cc1 | inconclusive: 44.7 µM [inhibitor, single point]
Cc1n[nH]c(C)c1NC(=O)CN1CCN(S(=O)(=O)c2ccc(C(F)(F)F)cc2)CC1 | inactive
Cn1c(SCC(=O)c2ccc3c(c2)OCCO3)nnc1C1CC1 | inconclusive: 63.1 µM [inhibitor, partial curve, poor fit]
Cc1ccc(NC(=O)c2cccc(S(=O)(=O)N3CCCCC3)c2)cc1 | inconclusive: 112 µM [inhibitor, single point]
CC1CCN(CCCNC(=O)c2cc3c(s2)-c2ccccc2OC3)CC1 | inactive
CCc1cc(=O)oc2cc(OCc3nc(-c4cccc(Cl)c4)no3)ccc12 | inactive
CCCCCCCC(=O)O[C@H](CC(=O)O)C[N+](C)(C)C | inconclusive: 35.5 µM [inhibitor, single point]
COC(=O)C1=C(CN2CCCCC2)NC(=O)NC1c1ccc(C)cc1 (stereo not drawn) | inconclusive: 50.1 µM [inhibitor, partial curve, poor fit]
CCNC(=O)NC(=O)C(C)OC(=O)CCCSc1nc2ccccc2s1 (stereo not drawn) | inactive
O=C(NCCc1ccc(Cl)cc1)c1ccc(CSCc2ccccc2Cl)o1 | inconclusive: 56.2 µM [inhibitor, partial curve, poor fit]
CN1c2cc(C(=O)NCc3cccs3)ccc2C(=O)N2CCCCC21 (stereo not drawn) | inactive
N#Cc1cccc(COC(=O)c2ccccc2SCc2ccco2)c1 | inconclusive: 12.6 µM [inhibitor, full curve, poor fit]
O=C(NCc1ccc(O)cc1)c1cnc2ccccc2n1 | inactive
O=C(Nc1ccc(S(=O)(=O)Nc2nccs2)cc1)C1CC(=O)N(c2ccc(Cl)cc2)C1 (stereo not drawn) | inconclusive: 100 µM [inhibitor, single point]
CCN=C1S/C(=C\c2cn(CC)c3ccccc23)C(=O)N1CC | inconclusive: 44.7 µM [inhibitor, partial curve]
COc1cc(C(=O)N2CCC(C(=O)Nc3ccccc3)CC2)ccc1OCc1c(C)noc1C | inactive
COc1cccc(CN2C[C@@H](COCC3CC3)[C@H](c3ccncc3)C2)n1 | inactive
O=C(N/N=C/C=C/c1ccccc1)C(O)c1ccccc1 (stereo not drawn) | inactive
CCc1c(-c2ccc(F)cc2F)ncn1CCc1ccccc1OC | inconclusive: 11.2 µM [inhibitor, partial curve, poor fit]
COC(=O)C1=C(C)N(C)C(C)=C(C(=O)OC)C1c1cccc(Br)c1 | inactive
O=C(O)c1ccc(C(=O)/C=C/c2cccs2)s1 | inconclusive: 7.94 µM [inhibitor, full curve]

SMILES | Potency
CN(C)CCN1C(=O)c2oc3ccc(F)cc3c(=O)c2C1c1ccncc1 (stereo not drawn) | inconclusive: 3.98 µM [inhibitor, full curve, poor fit]
CC(C)OC(=O)c1cc2c(ccn2C)n1CC(=O)N1CCC(Cc2ccccc2)CC1 | inconclusive: 79.4 µM [inhibitor, single point]
O=C(CCc1ncc(-c2ccccc2Cl)o1)Nc1ccccc1 | inactive
C[C@@H](CSc1ccc(Br)cc1)CN1CC[C@H](NC(=O)OCc2ccccc2)CCC1=O | inactive
O=C1C(Cc2ccccc2)C(c2ccccc2)N1c1ccccc1 (stereo not drawn) | inactive
CCSc1nc2n(n1)C(c1ccc(CC)cc1)C(C(=O)Nc1ccccc1OC)=C(C)N2 (stereo not drawn) | inactive
CCOc1cc(C(=S)N2CCOCC2)ccc1OS(=O)(=O)c1ccc(NC(C)=O)cc1 | inactive
O=[N+]([O-])c1ccccc1-c1cc(-c2cc(Cl)ccc2O)n[nH]1 | inconclusive: 44.7 µM [inhibitor, partial curve, poor fit]
CC(=O)N(/N=C1\Sc2ccccc2C1=O)c1ccccc1C | inactive
COC(=O)c1ccc2nc(C[C@@H]3C[C@@H](C(C)C)[C@H](CNC(=O)COCC(=O)O)C=C3C)[nH]c2c1 | inconclusive: 20 µM [inhibitor, full curve]
CCc1cccc(NC(=O)CN2C(=O)CCc3cc(S(=O)(=O)N4CCOCC4)ccc32)c1 | inconclusive: 141 µM [inhibitor, partial curve, poor fit]
O=C(CN1CC(c2ccccc2)CC1=O)N/N=C/c1cc(Br)ccc1O (stereo not drawn) | inconclusive: 79.4 µM [inhibitor, partial curve, poor fit]
COc1ccc(N2CCN(C(=O)CN(c3cccc(Br)c3)S(C)(=O)=O)CC2)cc1 | inactive
CCOc1ccc(S(=O)(=O)N2CCN(C3CC(=O)N(c4cccc(C(C)=O)c4)C3=O)CC2)cc1 (stereo not drawn) | inactive
CCCN1CCn2c3c(c4cc(Br)ccc42)CCCC31 (stereo not drawn) | inconclusive: 50.1 µM [inhibitor, partial curve, poor fit]
CN1CCCN=C1/C=C/c1cccs1 | inconclusive: 28.2 µM [inhibitor, partial curve, poor fit]
Cc1cc(C(=O)CSc2nnc(C(C)Oc3ccc(F)cc3)o2)c(C)n1CC(F)(F)F (stereo not drawn) | inconclusive: 126 µM [inhibitor, single point]
Cc1ccc2oc(C(=O)Nc3nnc(CC(C)C)s3)cc(=O)c2c1 | inconclusive: 5.01 µM [inhibitor, full curve, poor fit]
COc1ccc(OC)c(-c2csc(NC(=O)C3=NN(c4ccccc4)C(=O)CC3)n2)c1 | inactive
Fc1ccccc1-n1c(-c2ccc3ccccc3n2)n[nH]c1=S | inconclusive: 39.8 µM [inhibitor, partial curve]
Cc1ccc(OC(C)C(=O)Nc2ccc3c(c2)n(C)c(=O)n3C)c(C)c1 (stereo not drawn) | active: 44.7 µM
Cc1[nH]nc(CCC(=O)N2CCC3(CCC(=O)N(CC4CC4)C3)CC2)c1C | inactive

Reformatted as labelled records: part of the list above.
COC(=O)c1ccc2nc(C[C@@H]3C[C@@H](C(C)C)[C@H](CNC(=O)COCC(=O)O)C=C3C)[nH]c2c1
  Potency: inconclusive: 20 µM [inhibitor, full curve]
CCc1cccc(NC(=O)CN2C(=O)CCc3cc(S(=O)(=O)N4CCOCC4)ccc32)c1
  Potency: inconclusive: 141 µM [inhibitor, partial curve, poor fit]
O=C(CN1CC(c2ccccc2)CC1=O)N/N=C/c1cc(Br)ccc1O (stereo not drawn)
  Potency: inconclusive: 79.4 µM [inhibitor, partial curve, poor fit]
COc1ccc(N2CCN(C(=O)CN(c3cccc(Br)c3)S(C)(=O)=O)CC2)cc1
  Potency: inactive
